Results reported in doi:10.1101/364463 (bioRxiv, 2019).
Positions count from the first letter of the chain named. Numbers in names are those of the source. These are yes or no findings as the source states them, for the method shown. Binding seen in cells or lysates may run through a third protein. Some results given as binding are weak or reduced against the parent protein; the word gives no strength. Sequences can lack the tags named with a protein. Blank lines part the entries; values can stand above or below the molecule they belong to.

Sequences of proteins named here, by UniProt entry; tags and fusion partners are left off. A change or cut given only in a name is not applied to a line headed by its entry.
UniProt Q24117, whole entry: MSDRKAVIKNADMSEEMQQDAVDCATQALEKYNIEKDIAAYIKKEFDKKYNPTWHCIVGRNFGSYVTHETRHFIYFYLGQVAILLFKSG
UniProt O96860, whole entry: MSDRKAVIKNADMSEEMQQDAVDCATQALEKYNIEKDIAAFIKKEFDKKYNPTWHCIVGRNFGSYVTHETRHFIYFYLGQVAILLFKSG
UniProt P63167, whole entry: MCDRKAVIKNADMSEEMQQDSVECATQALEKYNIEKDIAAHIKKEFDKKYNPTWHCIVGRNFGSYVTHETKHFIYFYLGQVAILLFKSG

Assays:
Assay in all cases: co-IP
[1] = molecular target: T1, HA-PI31-S168D (expressed in S2 cells) (Drosophila) (UniProt Q9V637)
T1 sequence: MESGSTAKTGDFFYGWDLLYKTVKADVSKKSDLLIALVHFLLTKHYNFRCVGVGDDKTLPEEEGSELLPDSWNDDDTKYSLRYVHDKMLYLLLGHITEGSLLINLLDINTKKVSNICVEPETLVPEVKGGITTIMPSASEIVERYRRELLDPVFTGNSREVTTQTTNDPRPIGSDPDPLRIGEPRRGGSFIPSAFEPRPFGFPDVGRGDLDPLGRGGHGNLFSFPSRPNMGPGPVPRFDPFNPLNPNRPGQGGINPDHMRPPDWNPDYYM

[2] = molecular target: T2, HA-PI31-S168A (expressed in S2 cells) (Drosophila) (UniProt Q9V637)
T2 sequence: T1 sequence with D168A

[3] = molecular target: T3, HA-PI31-S168A (transgenic flies) (Drosophila) (UniProt Q9V637)
T3 sequence: T1 sequence with D168A

[4] = molecular target: T4, HA-PI31^Knock-in (Drosophila) (UniProt Q9V637)
T4 sequence: T1 sequence with D168S

[5] = molecular target: T5, HA-PI31 (wild type, expressed in S2 cells) (Drosophila) (UniProt Q9V637)
T5 sequence: T1 sequence with D168S

[6] = molecular target: T6, HA-PI31 (UAS-HA-PI31-WT, transgenic flies) (Drosophila) (UniProt Q9V637)
T6 sequence: T1 sequence with D168S

[7] = molecular target: T7, HA-PI31-S168D (transgenic flies) (Drosophila) (UniProt Q9V637)
T7 sequence: T1 sequence

[8] = molecular target: T8, HA-hPI31 (human PI31, in HEK293 cells) (human) (UniProt Q92530)
T8 sequence: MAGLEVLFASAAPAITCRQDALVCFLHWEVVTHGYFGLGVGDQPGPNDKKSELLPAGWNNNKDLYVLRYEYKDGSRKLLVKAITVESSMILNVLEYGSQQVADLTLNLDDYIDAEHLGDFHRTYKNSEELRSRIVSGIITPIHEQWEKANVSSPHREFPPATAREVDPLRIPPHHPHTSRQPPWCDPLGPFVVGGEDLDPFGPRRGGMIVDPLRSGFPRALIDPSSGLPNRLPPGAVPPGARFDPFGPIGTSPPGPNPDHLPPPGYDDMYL

[9] = molecular target: FLAG-dDYNLL1 (expressed in S2 cells) (Drosophila) (UniProt Q24117)

Molecule: Cdlc2 (Drosophila homolog of dynein light chain LC8-type 2, dDYNLL2), endogenous (from UniProt O96860 1-89)
binding [1]: binds
binding [2]: binds
binding [3]: binds
binding [4]: binds
binding [5]: binds
binding [6]: binds
binding [7]: binds

Molecule: Ctp (Drosophila homolog of dynein light chain LC8-type 1, dDYNLL1), endogenous (from UniProt Q24117 1-89)
binding [1]: binds
binding [2]: binds
binding [3]: binds
binding [4]: binds
binding [5]: binds
binding [6]: binds
binding [7]: binds

Molecule: DYNLL1 of HEK293 cells (endogenous) (from UniProt P63167 1-89)
binding [8]: binds

The next lines start with the values.

binding [9]: binds
B1: PI31 of S2 cells (endogenous) (protein, UniProt Q9V637 1-270)
chain: T1 sequence with D168S

binding [9]: binds
B2: HA-PI31 (wild type, expressed in S2 cells) (protein, UniProt Q9V637 1-270)
chain: T1 sequence with D168S

binding [9]: binds
B3: HA-PI31-S168D (expressed in S2 cells) (protein, UniProt Q9V637 1-270)
chain: T1 sequence

binding [9]: binds
B4: HA-PI31-S168A (expressed in S2 cells) (protein, UniProt Q9V637 1-270)
chain: T1 sequence with D168A
